Results are given in words; binding and its absence hold for the method and conditions named. In cells and extracts the contact can be indirect. Some binding calls cover weakened binding; strength is not graded here. Where a sequence is shown, tags or fusion partners need not be part of it.
T1: BASP1-tGFP (UniProt Q91XV3)
T1 sequence: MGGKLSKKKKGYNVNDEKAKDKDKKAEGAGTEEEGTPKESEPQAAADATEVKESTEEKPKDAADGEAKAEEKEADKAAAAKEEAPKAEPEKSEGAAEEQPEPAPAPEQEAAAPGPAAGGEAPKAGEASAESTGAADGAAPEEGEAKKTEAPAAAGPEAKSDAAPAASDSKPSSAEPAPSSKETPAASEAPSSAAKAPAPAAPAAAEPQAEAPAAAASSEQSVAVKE


Biological target: T1, BASP1-tGFP
Assay: co-IP

binding | Binder
binds | PLPPR3 ICDm-His (membrane-tagged intracellular domain of PLPPR3, aa 284-716) (domain or fragment, UniProt Q7TPB0-1 284-716) QAPPAEKVPTPAPAKDALRALTQRGHESMYQQNKSVSTDELGPPGRLEGVPRPVAREKTSLGSLKRASVDVDLLAPRSPMGKEGMVTFSNTLPRVSTPSLDDPARRHMTIHVPLDASRSRQLIGEWKQKSLEGRGLGLPDEASPVHLRAPAEQVAEEEEEEEEEEEEEEEEEEEEGPVPPSLYPTVQARPGLGPRVILPPRPGPQPLVHIPEEGVQAGAGLSPKSSSSSVRAKWLSVAEKGGGPVAVAPSQPRVANPPRLLQVIAMSKAAGGPKAETASSSSASSDSSQYRSPSDRDSASIVTIDAHAPHHPVVHLSAGSTPWEWKAKVVEGEGSYELGDLARGFRSSCKQPGMGPGSPVSDVDQEEPRFGAVATVNLATGEGLPPPGASEGALGAGSRESTLRRQVGGLAEREVEAEAESYYRRMQARRYQD
binds | PLPPR3-ICDm-S351A (domain or fragment, UniProt Q7TPB0-1 284-716) QAPPAEKVPTPAPAKDALRALTQRGHESMYQQNKSVSTDELGPPGRLEGVPRPVAREKTSLGSLKRAAVDVDLLAPRSPMGKEGMVTFSNTLPRVSTPSLDDPARRHMTIHVPLDASRSRQLIGEWKQKSLEGRGLGLPDEASPVHLRAPAEQVAEEEEEEEEEEEEEEEEEEEEGPVPPSLYPTVQARPGLGPRVILPPRPGPQPLVHIPEEGVQAGAGLSPKSSSSSVRAKWLSVAEKGGGPVAVAPSQPRVANPPRLLQVIAMSKAAGGPKAETASSSSASSDSSQYRSPSDRDSASIVTIDAHAPHHPVVHLSAGSTPWEWKAKVVEGEGSYELGDLARGFRSSCKQPGMGPGSPVSDVDQEEPRFGAVATVNLATGEGLPPPGASEGALGAGSRESTLRRQVGGLAEREVEAEAESYYRRMQARRYQD

— article doi:10.1101/2024.03.11.584206
